Laboratory results: paper PMC11915870
These are yes or no findings as the source states them, for the method shown. Binding seen in cells or lysates may run through a third protein. A yes stands for co-enrichment or nearness to the bait. Other partners may have been found.

The chains behind the UniProt entries cited, without tags or fusion partners.
UniProt Q16666: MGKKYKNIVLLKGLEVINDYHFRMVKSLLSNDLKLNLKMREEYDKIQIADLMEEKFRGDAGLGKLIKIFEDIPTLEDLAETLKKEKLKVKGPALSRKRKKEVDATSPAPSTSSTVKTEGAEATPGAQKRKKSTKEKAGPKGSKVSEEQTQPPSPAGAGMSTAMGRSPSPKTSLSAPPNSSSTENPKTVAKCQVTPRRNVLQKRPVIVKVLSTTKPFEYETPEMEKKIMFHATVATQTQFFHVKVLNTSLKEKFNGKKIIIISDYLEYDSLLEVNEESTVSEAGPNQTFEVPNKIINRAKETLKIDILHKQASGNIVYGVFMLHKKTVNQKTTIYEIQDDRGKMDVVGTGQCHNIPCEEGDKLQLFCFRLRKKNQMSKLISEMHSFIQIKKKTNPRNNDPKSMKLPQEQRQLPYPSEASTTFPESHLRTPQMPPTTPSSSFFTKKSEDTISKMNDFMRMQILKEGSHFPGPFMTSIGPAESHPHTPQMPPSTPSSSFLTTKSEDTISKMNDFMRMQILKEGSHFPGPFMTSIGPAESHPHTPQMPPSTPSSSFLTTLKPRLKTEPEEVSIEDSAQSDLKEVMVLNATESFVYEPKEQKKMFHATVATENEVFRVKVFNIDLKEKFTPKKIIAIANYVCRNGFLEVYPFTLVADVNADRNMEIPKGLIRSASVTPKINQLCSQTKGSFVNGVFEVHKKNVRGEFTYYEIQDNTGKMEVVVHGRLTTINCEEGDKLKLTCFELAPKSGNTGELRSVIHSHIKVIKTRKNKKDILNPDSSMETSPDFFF
UniProt Q13547: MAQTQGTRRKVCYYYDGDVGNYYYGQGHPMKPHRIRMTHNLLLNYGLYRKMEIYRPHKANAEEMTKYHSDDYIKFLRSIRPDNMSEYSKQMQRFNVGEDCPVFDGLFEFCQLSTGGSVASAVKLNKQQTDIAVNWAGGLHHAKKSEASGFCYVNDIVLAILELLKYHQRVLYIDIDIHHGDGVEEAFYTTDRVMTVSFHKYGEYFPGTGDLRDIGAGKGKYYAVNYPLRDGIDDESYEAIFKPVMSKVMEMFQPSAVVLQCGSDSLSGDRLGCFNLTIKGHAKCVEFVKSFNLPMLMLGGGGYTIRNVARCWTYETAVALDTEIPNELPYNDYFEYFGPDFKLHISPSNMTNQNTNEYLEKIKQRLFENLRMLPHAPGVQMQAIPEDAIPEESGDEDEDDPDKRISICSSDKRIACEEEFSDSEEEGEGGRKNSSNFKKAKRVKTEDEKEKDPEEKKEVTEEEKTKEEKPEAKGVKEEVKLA
UniProt Q92769: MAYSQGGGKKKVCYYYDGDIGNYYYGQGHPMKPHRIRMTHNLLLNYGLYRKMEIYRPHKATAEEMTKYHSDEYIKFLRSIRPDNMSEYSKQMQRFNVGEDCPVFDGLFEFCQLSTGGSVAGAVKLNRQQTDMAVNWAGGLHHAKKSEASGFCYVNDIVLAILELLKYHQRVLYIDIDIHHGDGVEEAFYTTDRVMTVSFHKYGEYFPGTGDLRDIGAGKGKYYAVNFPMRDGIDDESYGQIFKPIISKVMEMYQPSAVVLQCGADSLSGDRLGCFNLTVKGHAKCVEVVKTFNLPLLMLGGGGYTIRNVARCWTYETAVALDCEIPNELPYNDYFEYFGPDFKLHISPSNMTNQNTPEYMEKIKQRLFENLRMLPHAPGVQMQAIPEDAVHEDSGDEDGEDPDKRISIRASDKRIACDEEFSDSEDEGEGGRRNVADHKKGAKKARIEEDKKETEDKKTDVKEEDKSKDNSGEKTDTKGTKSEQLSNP

Biological target: Interferon-γ-inducible protein 16 (IFI16), endogenous (human (endogenous in BCBL1, BC3, BJAB, iSLK, iSLK.219, U2OS)) (UniProt Q16666)
Assay: affinity purification with mass spectrometry; IP of endogenous IFI16 from BCBL1 whole-cell lysate with anti-IFI16 mouse monoclonal or rabbit polyclonal antibody, control IgG (Rb) in parallel; on-bead trypsin digestion, LC-MS/MS; two biological replicates

Row | binding | Substance
1 | binds | HDAC1, endogenous (from UniProt Q13547 1-482) (enzyme)
2 | binds | HDAC2, endogenous (from UniProt Q92769 1-488) (enzyme)
